Measured values published in paper PMC7884776.
These are yes or no findings as the source states them, for the method shown. In cells and extracts the contact can be indirect. A yes stands for co-enrichment or nearness to the bait. Other partners may have been found. A no says only that the protein was not detected with the bait. Tags and fused reporters may be left off the sequences shown.

Protein sequences, listed by entry. Tags and fused reporters are not part of them. Lines headed by an entry give the natural chain unless they say otherwise; changes in a name come on top.
UniProt Q7KQL3: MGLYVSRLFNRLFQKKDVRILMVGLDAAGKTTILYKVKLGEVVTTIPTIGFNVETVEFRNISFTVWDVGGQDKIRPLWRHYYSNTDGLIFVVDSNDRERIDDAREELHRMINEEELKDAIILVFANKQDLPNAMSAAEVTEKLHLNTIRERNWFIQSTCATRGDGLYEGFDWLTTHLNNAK
UniProt Q9BHN1: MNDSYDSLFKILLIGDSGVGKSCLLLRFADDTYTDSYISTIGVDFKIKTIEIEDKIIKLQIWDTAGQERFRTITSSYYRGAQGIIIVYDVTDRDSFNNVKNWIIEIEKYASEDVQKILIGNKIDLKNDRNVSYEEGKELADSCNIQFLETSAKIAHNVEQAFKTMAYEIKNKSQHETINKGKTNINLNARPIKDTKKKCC
UniProt Q8IHZ9: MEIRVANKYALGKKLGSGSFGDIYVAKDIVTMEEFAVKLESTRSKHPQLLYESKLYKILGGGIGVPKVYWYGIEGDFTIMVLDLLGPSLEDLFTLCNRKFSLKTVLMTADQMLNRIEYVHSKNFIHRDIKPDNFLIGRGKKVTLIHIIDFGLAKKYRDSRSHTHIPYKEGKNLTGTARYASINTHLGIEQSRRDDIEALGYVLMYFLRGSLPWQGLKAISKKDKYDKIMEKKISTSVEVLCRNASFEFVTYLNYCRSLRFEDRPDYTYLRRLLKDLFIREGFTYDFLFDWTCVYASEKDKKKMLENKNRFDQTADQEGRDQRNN
UniProt Q8I2B4: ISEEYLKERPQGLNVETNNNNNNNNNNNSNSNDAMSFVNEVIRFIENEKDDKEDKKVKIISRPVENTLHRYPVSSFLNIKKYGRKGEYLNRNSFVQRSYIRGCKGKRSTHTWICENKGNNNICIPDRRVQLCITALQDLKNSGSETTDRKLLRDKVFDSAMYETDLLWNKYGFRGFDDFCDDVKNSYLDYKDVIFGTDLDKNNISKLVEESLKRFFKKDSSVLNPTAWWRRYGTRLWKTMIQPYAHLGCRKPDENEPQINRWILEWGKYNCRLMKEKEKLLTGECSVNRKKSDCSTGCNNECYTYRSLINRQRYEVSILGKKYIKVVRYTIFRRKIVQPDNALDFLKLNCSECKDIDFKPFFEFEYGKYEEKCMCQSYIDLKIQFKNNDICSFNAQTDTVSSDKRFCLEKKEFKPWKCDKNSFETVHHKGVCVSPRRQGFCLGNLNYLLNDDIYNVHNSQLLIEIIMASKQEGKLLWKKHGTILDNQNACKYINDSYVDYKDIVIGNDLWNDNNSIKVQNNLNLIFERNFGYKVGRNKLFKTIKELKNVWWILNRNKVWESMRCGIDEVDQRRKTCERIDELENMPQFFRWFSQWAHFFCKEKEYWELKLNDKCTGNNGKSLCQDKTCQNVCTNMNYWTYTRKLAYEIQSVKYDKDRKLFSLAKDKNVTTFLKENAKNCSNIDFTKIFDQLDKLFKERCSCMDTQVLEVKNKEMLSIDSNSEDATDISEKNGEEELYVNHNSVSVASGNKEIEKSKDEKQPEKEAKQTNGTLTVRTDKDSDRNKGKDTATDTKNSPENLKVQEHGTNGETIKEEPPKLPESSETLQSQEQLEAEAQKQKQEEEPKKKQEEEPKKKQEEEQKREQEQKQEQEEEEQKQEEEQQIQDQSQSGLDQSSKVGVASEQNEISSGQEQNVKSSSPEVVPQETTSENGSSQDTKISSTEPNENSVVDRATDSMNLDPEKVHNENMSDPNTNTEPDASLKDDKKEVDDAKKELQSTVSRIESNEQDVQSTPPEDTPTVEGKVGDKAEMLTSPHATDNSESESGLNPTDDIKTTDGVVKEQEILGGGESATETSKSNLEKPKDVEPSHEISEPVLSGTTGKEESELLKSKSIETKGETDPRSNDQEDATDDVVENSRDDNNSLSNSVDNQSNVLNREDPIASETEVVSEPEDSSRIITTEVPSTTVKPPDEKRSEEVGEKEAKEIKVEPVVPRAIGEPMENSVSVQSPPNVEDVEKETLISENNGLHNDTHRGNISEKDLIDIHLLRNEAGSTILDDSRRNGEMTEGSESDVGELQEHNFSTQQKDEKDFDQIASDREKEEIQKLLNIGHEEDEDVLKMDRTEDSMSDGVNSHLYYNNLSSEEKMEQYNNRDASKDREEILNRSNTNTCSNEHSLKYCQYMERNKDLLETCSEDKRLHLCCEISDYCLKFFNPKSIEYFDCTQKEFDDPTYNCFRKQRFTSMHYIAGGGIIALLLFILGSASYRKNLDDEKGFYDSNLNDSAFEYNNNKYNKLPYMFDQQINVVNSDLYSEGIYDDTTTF
UniProt Q8IL42: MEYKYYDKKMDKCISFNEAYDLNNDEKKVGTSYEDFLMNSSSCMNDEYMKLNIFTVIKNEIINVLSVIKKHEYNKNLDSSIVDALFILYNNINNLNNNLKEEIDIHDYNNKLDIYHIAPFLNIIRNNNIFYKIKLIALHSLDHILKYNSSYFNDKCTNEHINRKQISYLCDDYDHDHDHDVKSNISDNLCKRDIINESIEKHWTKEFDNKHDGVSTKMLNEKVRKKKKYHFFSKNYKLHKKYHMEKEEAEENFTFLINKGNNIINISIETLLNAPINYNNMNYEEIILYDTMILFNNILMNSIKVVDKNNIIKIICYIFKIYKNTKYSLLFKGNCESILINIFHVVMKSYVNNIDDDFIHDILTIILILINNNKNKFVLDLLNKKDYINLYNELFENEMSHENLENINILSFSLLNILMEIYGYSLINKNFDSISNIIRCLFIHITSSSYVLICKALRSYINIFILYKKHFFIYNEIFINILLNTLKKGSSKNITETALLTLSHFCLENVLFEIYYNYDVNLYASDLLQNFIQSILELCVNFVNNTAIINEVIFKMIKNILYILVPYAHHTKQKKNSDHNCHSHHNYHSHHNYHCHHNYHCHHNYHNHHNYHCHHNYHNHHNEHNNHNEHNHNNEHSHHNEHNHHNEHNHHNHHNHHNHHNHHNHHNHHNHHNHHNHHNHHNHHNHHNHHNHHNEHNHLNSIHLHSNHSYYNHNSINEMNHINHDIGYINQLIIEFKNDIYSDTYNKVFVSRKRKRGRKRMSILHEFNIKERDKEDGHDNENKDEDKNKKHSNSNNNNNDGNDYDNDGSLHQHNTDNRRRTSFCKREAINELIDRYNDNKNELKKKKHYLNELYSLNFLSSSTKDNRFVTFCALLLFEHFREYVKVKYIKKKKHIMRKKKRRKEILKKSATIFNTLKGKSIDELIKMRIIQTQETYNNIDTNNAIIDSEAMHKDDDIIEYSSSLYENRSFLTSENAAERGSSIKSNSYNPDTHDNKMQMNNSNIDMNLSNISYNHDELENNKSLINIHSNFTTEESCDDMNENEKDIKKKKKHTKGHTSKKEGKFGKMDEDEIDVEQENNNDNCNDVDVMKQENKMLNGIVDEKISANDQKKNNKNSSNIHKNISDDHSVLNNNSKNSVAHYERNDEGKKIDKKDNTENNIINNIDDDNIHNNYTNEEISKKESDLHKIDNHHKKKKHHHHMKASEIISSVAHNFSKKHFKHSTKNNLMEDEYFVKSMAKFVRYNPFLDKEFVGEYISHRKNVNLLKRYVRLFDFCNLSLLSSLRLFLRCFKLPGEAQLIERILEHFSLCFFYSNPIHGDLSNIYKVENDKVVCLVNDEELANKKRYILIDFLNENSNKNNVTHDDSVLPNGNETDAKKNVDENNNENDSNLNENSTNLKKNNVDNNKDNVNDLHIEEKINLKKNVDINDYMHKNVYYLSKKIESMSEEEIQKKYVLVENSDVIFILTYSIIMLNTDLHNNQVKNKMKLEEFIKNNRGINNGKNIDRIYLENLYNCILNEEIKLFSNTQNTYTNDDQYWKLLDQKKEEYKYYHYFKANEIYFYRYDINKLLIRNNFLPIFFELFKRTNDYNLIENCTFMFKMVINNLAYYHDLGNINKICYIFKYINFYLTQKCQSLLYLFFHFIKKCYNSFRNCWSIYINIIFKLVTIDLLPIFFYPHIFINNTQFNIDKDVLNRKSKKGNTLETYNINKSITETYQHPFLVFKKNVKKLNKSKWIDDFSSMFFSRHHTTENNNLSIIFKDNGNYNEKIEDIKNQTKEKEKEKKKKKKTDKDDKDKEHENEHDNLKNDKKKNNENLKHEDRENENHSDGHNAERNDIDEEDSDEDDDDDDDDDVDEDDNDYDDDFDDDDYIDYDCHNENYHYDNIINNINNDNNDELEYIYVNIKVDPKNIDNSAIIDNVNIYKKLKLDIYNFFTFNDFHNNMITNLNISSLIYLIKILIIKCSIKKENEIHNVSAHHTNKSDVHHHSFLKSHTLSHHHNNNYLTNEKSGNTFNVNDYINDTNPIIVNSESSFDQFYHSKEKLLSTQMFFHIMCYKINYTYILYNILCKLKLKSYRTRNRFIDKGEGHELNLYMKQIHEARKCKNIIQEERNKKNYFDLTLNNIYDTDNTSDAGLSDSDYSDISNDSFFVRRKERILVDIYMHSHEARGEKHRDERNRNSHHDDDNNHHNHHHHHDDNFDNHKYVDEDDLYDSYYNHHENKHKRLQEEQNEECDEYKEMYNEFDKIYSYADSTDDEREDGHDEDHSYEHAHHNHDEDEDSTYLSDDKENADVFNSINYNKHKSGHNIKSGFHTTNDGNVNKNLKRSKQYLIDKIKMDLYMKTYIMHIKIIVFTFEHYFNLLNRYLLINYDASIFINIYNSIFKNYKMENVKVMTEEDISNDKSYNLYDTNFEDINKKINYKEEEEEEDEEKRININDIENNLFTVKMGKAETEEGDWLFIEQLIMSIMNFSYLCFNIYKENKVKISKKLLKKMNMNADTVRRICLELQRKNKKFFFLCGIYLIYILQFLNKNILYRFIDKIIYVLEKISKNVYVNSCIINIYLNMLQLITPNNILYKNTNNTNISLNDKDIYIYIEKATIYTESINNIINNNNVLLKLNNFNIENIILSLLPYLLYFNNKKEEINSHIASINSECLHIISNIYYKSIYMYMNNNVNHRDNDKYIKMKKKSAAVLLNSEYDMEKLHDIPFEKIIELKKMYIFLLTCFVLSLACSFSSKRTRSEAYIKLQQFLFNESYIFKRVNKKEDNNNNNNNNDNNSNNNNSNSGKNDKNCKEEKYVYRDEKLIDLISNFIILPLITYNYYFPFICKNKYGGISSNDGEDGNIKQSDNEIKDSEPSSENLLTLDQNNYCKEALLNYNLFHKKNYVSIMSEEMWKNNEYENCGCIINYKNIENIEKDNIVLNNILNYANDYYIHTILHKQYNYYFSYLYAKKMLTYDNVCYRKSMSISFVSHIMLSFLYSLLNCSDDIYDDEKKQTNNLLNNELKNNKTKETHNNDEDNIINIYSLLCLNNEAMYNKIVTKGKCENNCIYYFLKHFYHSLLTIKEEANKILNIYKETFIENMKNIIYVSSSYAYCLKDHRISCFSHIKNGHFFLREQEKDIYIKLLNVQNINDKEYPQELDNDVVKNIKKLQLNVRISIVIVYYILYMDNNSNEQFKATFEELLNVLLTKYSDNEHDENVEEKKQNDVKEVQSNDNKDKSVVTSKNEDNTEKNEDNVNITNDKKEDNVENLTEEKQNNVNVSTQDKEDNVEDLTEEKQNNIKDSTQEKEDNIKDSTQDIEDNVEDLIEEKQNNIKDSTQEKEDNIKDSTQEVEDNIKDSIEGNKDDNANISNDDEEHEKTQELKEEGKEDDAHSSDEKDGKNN

T1: PfRab5b-YFP-FLAG (Plasmodium falciparum) (UniProt Q76NM7)
T1 sequence: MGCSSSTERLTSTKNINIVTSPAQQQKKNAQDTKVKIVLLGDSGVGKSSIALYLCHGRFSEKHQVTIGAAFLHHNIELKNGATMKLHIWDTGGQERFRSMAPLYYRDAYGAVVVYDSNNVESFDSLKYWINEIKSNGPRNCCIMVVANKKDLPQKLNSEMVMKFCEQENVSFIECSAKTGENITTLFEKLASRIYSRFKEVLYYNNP

B1: PVM protein S16 (Pfs16) (protein, UniProt Q6ZMA7 26-157)
chain: DANDKAKKPAGKGSPSTLQTPGSSSGASLHAVGPNQGGLSQGLSGKDSADKMPLETQLAIEEIKSLSNMLDKKTTVNRNLIISTAVTNMIMLIILSGIVGFKVKKTKNADDDKGDKDKDKDNTDEGDEGDDS

target: T1, PfRab5b-YFP-FLAG (Plasmodium falciparum); experiment: affinity purification with mass spectrometry; saponin-permeabilised infected RBCs crosslinked with 0.5 mM DSP, solubilised in 1.0% Triton X-100 in PBS; anti-FLAG M2 agarose at 4°C for 3.5 h, eluted with FLAG peptide; SDS-PAGE, LC-ToF MS/MS; PfRab5b-YFP as control, >3.5 fold enrichment

Molecule | binding
ADP-ribosylation factor (PfArf GTPase), PfArf1 (from UniProt Q7KQL3 1-181) | binds
PfRab1b GTPase (from UniProt Q9BHN1 1-200) | binds
casein kinase CK1 (from UniProt Q8IHZ9 1-324) | no binding
early transcribed membrane protein 10.2 (ETRAMP10.2) (from UniProt Q8IJ76) | binds
erythrocyte binding antigen-181 (EBA181) (from UniProt Q8I2B4) | binds
protein transport protein SEC7 (PfSec7) (from UniProt Q8IL42) | binds
B1 | binds
